Test results reported in article doi:10.1101/2025.06.16.659917.
These are yes or no findings as the source states them, for the method shown. In cells and extracts the contact can be indirect. Some binding calls cover weakened binding; strength is not graded here. For some assays here: Where a sequence is shown, tags or fusion partners need not be part of it.

Amino acid sequences for entries named in this document (tags omitted). Residues count along the entry.
UniProt P49336, residues 1-403: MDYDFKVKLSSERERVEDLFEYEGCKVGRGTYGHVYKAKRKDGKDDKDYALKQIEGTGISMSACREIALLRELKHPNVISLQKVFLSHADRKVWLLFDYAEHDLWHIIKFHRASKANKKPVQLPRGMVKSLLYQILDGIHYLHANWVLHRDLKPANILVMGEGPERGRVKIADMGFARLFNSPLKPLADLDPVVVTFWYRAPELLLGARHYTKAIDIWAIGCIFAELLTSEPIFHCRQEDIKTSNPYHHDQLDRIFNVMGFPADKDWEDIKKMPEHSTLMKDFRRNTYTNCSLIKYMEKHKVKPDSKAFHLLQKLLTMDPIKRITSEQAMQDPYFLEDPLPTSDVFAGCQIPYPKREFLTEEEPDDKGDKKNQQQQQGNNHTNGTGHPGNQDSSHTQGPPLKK

Columns and labels:
Experiment in all cases: co-IP
6Myc-Cdk8 (human) = 6Myc-Cdk8 (human) (UniProt P49336)
[1] = biological target: CycC-3Flag-GFP-WT (human) (UniProt P24863)
[2] = biological target: T1, CycC-YFDM (3Flag-GFP) (human) (UniProt P24863)
T1 sequence: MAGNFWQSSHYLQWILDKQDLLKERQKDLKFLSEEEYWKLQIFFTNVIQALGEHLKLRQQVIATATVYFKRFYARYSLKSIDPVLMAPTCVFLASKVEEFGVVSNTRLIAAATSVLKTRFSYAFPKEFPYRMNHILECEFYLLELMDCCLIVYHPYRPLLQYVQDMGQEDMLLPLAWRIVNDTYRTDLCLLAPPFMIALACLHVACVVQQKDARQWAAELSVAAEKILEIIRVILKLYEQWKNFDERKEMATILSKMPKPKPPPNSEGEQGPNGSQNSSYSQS

B1: MTBP (endogenous, full-length) (protein, UniProt Q96DY7 1-904)
chain: MDRYLLLVIWGEGKFPSAASREAEHGPEVSSGEGTENQPDFTAANVYHLLKRSISASINPEDSTFPACSVGGIPGSKKWFFAVQAIYGFYQFCSSDWQEIHFDTEKDKIEDVLQTNIEECLGAVECFEEEDSNSRESLSLADLYEEAAENLHQLSDKLPAPGRAMVDIILLLSDKDPPKLKDYLPTVGALKHLREWYSAKITIAGNHCEINCQKIAEYLSANVVSLEDLRNVIDSKELWRGKIQIWERKFGFEISFPEFCLKGVTLKNFSTSNLNTDFLAKKIIPSKDKNILPKVFHYYGPALEFVQMIKLSDLPSCYMSDIEFELGLTNSTKQNSVLLLEQISSLCSKVGALFVLPCTISNILIPPPNQLSSRKWKEYIAKKPKTISVPDVEVKGECSSYYLLLQGNGNRRCKATLIHSANQINGSFALNLIHGKMKTKTEEAKLSFPFDLLSLPHFSGEQIVQREKQLANVQVLALEECLKRRKLAKQPETVSVAELKSLLVLTRKHFLDYFDAVIPKMILRKMDKIKTFNILNDFSPVEPNSSSLMETNPLEWPERHVLQNLETFEKTKQKMRTGSLPHSSEQLLGHKEGPRDSITLLDAKELLKYFTSDGLPIGDLQPLPIQKGEKTFVLTPELSPGKLQVLPFEKASVCHYHGIEYCLDDRKALERDGGFSELQSRLIRYETQTTCTRESFPVPTVLSPLPSPVVSSDPGSVPDGEVLQNELRTEVSRLKRRSKDLNCLYPRKRLVKSESSESLLSQTTGNSNHYHHHVTSRKPQTERSLPVTCPLVPIPSCETPKLATKTSSGQKSMHESKTSRQIKESRSQKHTRILKEVVTETLKKHSITETHECFTACSQRLFEISKFYLKDLKTSRGLFEEMKKTANNNAVQVIDWVLEKTSKK
B1 was tested, and the binding (6Myc-Cdk8 (human)) was “binds”, the binding [1] was “binds” and the binding [2] was “binds”.

B2: Med12(N100), overexpressed in Hek293T (domain or fragment, UniProt Q93074 1-100)
chain: MAAFGILSYEHRPLKRPRLGPPDVYPQDPKQKEDELTALNVKQGFNNQPAVSGDEHGSAKNVSFNPAKISSNFSSIIAEKLRCNTLPDTGRRKPQVNQKD
B2 was tested, and the binding (6Myc-Cdk8 (human)) was “binds”.

B3: MTBP-516-704-WT (domain or fragment, UniProt Q96DY7 516-704)
chain: AVIPKMILRKMDKIKTFNILNDFSPVEPNSSSLMETNPLEWPERHVLQNLETFEKTKQKMRTGSLPHSSEQLLGHKEGPRDSITLLDAKELLKYFTSDGLPIGDLQPLPIQKGEKTFVLTPELSPGKLQVLPFEKASVCHYHGIEYCLDDRKALERDGGFSELQSRLIRYETQTTCTRESFPVPTVLSP
In the case of B3, the binding (6Myc-Cdk8 (human)) is reported as “binds”.
